Measured values: paper PMC11432330, “Novel Drug-like HsrA Inhibitors Exhibit Potent Narrow-Spectrum Antimicrobial Activities against Helicobacter pylori” (International Journal of Molecular Sciences, 2024)
Further values from the same series stand in other lists.

Test system: H. pylori 26695
Experiment: In vivo inhibition of HsrA: RNA-Seq transcriptomic analysis of exposed cells
Type: cell-based, Helicobacter pylori
Protocol: Bacterial growth from three blood agar plates of H. pylori ATCC 700392 (aka 26695) incubated for 48 h at 37 °C under microaerobic conditions was aseptically resuspended in BHI + FBS and adjusted to 10^7 CFU/mL. BHI broth cultures were incubated microaerobically at 37 °C for 24 h. […] At this time, bacterial growth was stopped by adding 1.5 mL ice-cold RNA stop solution (95% absolute ethanol, 5% acid-buffered phenol) and subsequently incubated on ice. Control samples were exposed to the same amount of DMSO instead of the inhibitor. Helicobacter cells from all samples were harvested by centrifugation (4000 rpm at 4 °C for 10 min), then the pellets were quickly frozen by immersion in liquid nitrogen and stored at −80 °C.
RNA-Seq analysis was performed by GENEWIZ (Azenta Life Sciences, Leipzig, Germany). Frozen cell pellets from two biological replicates of each treatment condition were properly submitted to GENEWIZ in dry ice. RNA-Seq libraries were prepared according to standard protocols via rRNA depletion, RNA fragmentation and random priming, reverse transcription, 5’-phosphorylation and dA-tailing of cDNAs, adaptor ligation, and PCR enrichment. Once the quality of each library was confirmed, they were sequenced on an Illumina NovaSeq 6000 (Illumina, San Diego, CA, USA) with 150-bp paired-ends. Raw sequence reads were filtered to remove possible adapter sequences and nucleotides with poor quality using Trimmomatic v.0.36 [105]. The trimmed reads were subsequently mapped to the H. pylori strain 26695 reference genome NC_000915.1 available on NCBI, by using the Bowtie2 aligner v.2.2.6 [106]. Unique gene hit counts were calculated by using featureCounts from the Subread package v.1.5.2. Only unique reads that fell within the gene regions were counted. Using DESeq2 [108], a comparison of the gene expression between the control and treated groups of samples was performed. The Wald test was used to generate p-values and log2 fold changes. Genes with an adjusted p-value < 0.05 and absolute log2 fold change >1 were considered as differentially expressed genes (DEGs) for each comparison. The RNA-Seq data generated in this study have been deposited in ArrayExpress with the accession number E-MTAB-14255.

NC(=NOC(=O)Nc1ccc(Cl)cc1)c1csc([N+](=O)[O-])c1 [Ligand V, N′-{[(4-chloroanilino)carbonyl]}oxy-5-nitrothiophene-3-carboximidamide]
log2 Fold Change (gene HP0731, exposed to lethal concentrations of V vs control): 0.920
log2 Fold Change (gene HP0735, exposed to lethal concentration of V vs control): -1.192
log2 Fold Change (gene HP0736, exposed to lethal concentration of V vs control): -0.931
log2 Fold Change (gene HP0739, exposed to lethal concentrations vs control): -0.821
log2 Fold Change (gene HP0740, exposed to lethal concentrations vs control): -0.841
log2 Fold Change (gene HP0745, exposed to lethal concentrations of V vs control): 0.502
log2 Fold Change (gene HP0746, exposed to lethal concentrations vs control): 1.099
log2 Fold Change (gene HP0749, exposed to lethal concentrations vs control): 0.00638
log2 Fold Change (gene HP0751, exposed to lethal concentrations vs control): 1.659
log2 Fold Change (gene HP0754, exposed to lethal concentrations vs control): 0.003
log2 Fold Change (gene HP0756, exposed to lethal concentration of V vs control): -1.508
log2 Fold Change (gene HP0757, exposed to lethal concentrations vs control): -0.808
log2 Fold Change (gene HP0761, exposed to lethal concentrations of V vs control): 1.008
log2 Fold Change (gene HP0762, exposed to lethal concentrations vs control): -0.814
log2 Fold Change (gene HP0764, exposed to lethal concentrations vs control): -0.017
log2 Fold Change (gene HP0766, exposed to lethal concentrations vs control): 0.062
log2 Fold Change (gene HP0769, exposed to lethal concentration of V vs control): -1.026
log2 Fold Change (gene HP0771, exposed to lethal concentrations vs control): -0.751
log2 Fold Change (gene HP0774, exposed to lethal concentrations vs control): 1.045
log2 Fold Change (gene HP0775, exposed to lethal concentrations vs control): -0.806
log2 Fold Change (gene HP0778, exposed to lethal concentrations of V vs control): 0.583
log2 Fold Change (gene HP0779, exposed to lethal concentrations vs control): 2.039
log2 Fold Change (gene HP0780, exposed to lethal concentrations vs control): 1.122
log2 Fold Change (gene HP0781, exposed to lethal concentrations vs control): 0.042
log2 Fold Change (gene HP0783, exposed to lethal concentrations of V vs control): 0.691
log2 Fold Change (gene HP0788, exposed to lethal concentrations vs control): 1.185
log2 Fold Change (gene HP0789, exposed to lethal concentrations of V vs control): 0.783
log2 Fold Change (gene HP0790, exposed to lethal concentrations vs control): -0.057
log2 Fold Change (gene HP0792, exposed to lethal concentrations vs control): -0.741
log2 Fold Change (gene HP0797, exposed to lethal concentrations vs control): 0.043
log2 Fold Change (gene HP0800, exposed to lethal concentrations vs control): 0.087
log2 Fold Change (gene HP0801, exposed to lethal concentrations vs control): -0.747
log2 Fold Change (gene HP0804, exposed to lethal concentrations vs control): -0.038
log2 Fold Change (gene HP0806, exposed to lethal concentrations vs control): 0.068
log2 Fold Change (gene HP0807, exposed to lethal concentrations vs control): -0.088
log2 Fold Change (gene HP0812, exposed to lethal concentrations vs control): 1.465
log2 Fold Change (gene HP0813, exposed to lethal concentrations vs control): 0.054
log2 Fold Change (gene HP0814, exposed to lethal concentrations vs control): 0.030
log2 Fold Change (gene HP0815, exposed to lethal concentrations of V vs control): 0.716
log2 Fold Change (gene HP0817, exposed to lethal concentrations of V vs control): 0.632
log2 Fold Change (gene HP0818, exposed to lethal concentrations vs control): 1.097
log2 Fold Change (gene HP0819a, exposed to lethal concentrations vs control): -0.056
log2 Fold Change (gene HP0822, exposed to lethal concentrations of V vs control): 0.980
log2 Fold Change (gene HP0825, exposed to lethal concentrations vs control): 0.060
log2 Fold Change (gene HP0826, exposed to lethal concentrations vs control): -0.022
log2 Fold Change (gene HP0827, exposed to lethal concentration of V vs control): -2.426
log2 Fold Change (gene HP0828, exposed to lethal concentration of V vs control): -1.081
log2 Fold Change (gene HP0829, exposed to lethal concentrations of V vs control): 0.706
log2 Fold Change (gene HP0835, exposed to lethal concentration of V vs control): -0.933
log2 Fold Change (gene HP0838, exposed to lethal concentration of V vs control): -0.956
log2 Fold Change (gene HP0841, exposed to lethal concentrations vs control): -0.634
log2 Fold Change (gene HP0842, exposed to lethal concentration of V vs control): -0.958
log2 Fold Change (gene HP0844, exposed to lethal concentrations vs control): 1.194
log2 Fold Change (gene HP0845, exposed to lethal concentrations vs control): 1.292
log2 Fold Change (gene HP0846, exposed to lethal concentrations of V vs control): 0.717
log2 Fold Change (gene HP0848, exposed to lethal concentrations vs control): -0.011
log2 Fold Change (gene HP0849, exposed to lethal concentrations of V vs control): 0.921
log2 Fold Change (gene HP0850, exposed to lethal concentrations of V vs control): 0.610
log2 Fold Change (gene HP0851, exposed to lethal concentrations vs control): -0.758
log2 Fold Change (gene HP0852, exposed to lethal concentrations of V vs control): 0.640
log2 Fold Change (gene HP0853, exposed to lethal concentrations vs control): -0.063
log2 Fold Change (gene HP0854, exposed to lethal concentrations vs control): -0.00249
log2 Fold Change (gene HP0855, exposed to lethal concentration of V vs control): -1.352
log2 Fold Change (gene HP0856, exposed to lethal concentrations vs control): -0.715
log2 Fold Change (gene HP0857, exposed to lethal concentrations vs control): -0.012
log2 Fold Change (gene HP0860, exposed to lethal concentrations vs control): -0.773
log2 Fold Change (gene HP0868, exposed to lethal concentrations vs control): 0.013
log2 Fold Change (gene HP0871, exposed to lethal concentrations vs control): 2.529
log2 Fold Change (gene HP0873, exposed to lethal concentrations of V vs control): 0.575
log2 Fold Change (gene HP0874, exposed to lethal concentrations vs control): 1.111
log2 Fold Change (gene HP0875, exposed to lethal concentrations vs control): 1.638
log2 Fold Change (gene HP0876, exposed to lethal concentrations of V vs control): 0.812
log2 Fold Change (gene HP0878, exposed to lethal concentrations of V vs control): 0.545
log2 Fold Change (gene HP0879, exposed to lethal concentrations of V vs control): 0.771
log2 Fold Change (gene HP0880, exposed to lethal concentrations vs control): -0.109
log2 Fold Change (gene HP0881, exposed to lethal concentrations of V vs control): 0.555
log2 Fold Change (gene HP0884, exposed to lethal concentrations of V vs control): 0.646
log2 Fold Change (gene HP0887, exposed to lethal concentrations vs control): -0.678
log2 Fold Change (gene HP0892, exposed to lethal concentrations vs control): 0.096
log2 Fold Change (gene HP0894, exposed to lethal concentrations vs control): -0.045
log2 Fold Change (gene HP0895, exposed to lethal concentrations of V vs control): 0.816
log2 Fold Change (gene HP0896, exposed to lethal concentrations vs control): 1.163
log2 Fold Change (gene HP0899, exposed to lethal concentrations of V vs control): 0.861
log2 Fold Change (gene HP0901, exposed to lethal concentrations vs control): -0.094
log2 Fold Change (gene HP0902, exposed to lethal concentrations vs control): 0.058
log2 Fold Change (gene HP0906, exposed to lethal concentrations vs control): -0.102
log2 Fold Change (gene HP0910, exposed to lethal concentrations vs control): 0.076
log2 Fold Change (gene HP0911, exposed to lethal concentrations vs control): 0.00146
log2 Fold Change (gene HP0913, exposed to lethal concentrations vs control): 0.114
log2 Fold Change (gene HP0914, exposed to lethal concentrations of V vs control): 0.683
log2 Fold Change (gene HP0918, exposed to lethal concentrations vs control): 0.035
log2 Fold Change (gene HP0920, exposed to lethal concentrations of V vs control): 0.774
log2 Fold Change (gene HP0922, exposed to lethal concentrations of V vs control): 0.777
log2 Fold Change (gene HP0923, exposed to lethal concentrations vs control): -0.057
log2 Fold Change (gene HP0927, exposed to lethal concentrations of V vs control): 0.516
log2 Fold Change (gene HP0933, exposed to lethal concentrations vs control): -0.103
log2 Fold Change (gene HP0934, exposed to lethal concentration of V vs control): -1.089
log2 Fold Change (gene HP0940, exposed to lethal concentrations vs control): -0.017
log2 Fold Change (gene HP0941, exposed to lethal concentrations of V vs control): 0.594
log2 Fold Change (gene HP0942, exposed to lethal concentrations vs control): 1.233
log2 Fold Change (gene HP0943, exposed to lethal concentrations vs control): 2.241
log2 Fold Change (gene HP0944, exposed to lethal concentrations vs control): 1.497
log2 Fold Change (gene HP0944a, exposed to lethal concentrations vs control): 0.130
log2 Fold Change (gene HP0947, exposed to lethal concentrations vs control): 0.145
log2 Fold Change (gene HP0950, exposed to lethal concentrations of V vs control): 0.641
log2 Fold Change (gene HP0951, exposed to lethal concentrations vs control): -0.014
log2 Fold Change (gene HP0956, exposed to lethal concentration of V vs control): -1.094
log2 Fold Change (gene HP0957, exposed to lethal concentration of V vs control): -0.904
log2 Fold Change (gene HP0958, exposed to lethal concentrations vs control): -0.863
log2 Fold Change (gene HP0959, exposed to lethal concentrations of V vs control): 0.722
log2 Fold Change (gene HP0964, exposed to lethal concentrations of V vs control): 0.560
log2 Fold Change (gene HP0965, exposed to lethal concentrations of V vs control): 0.566
log2 Fold Change (gene HP0966, exposed to lethal concentrations vs control): 0.078
log2 Fold Change (gene HP0970, exposed to lethal concentrations vs control): -0.683
log2 Fold Change (gene HP0971, exposed to lethal concentration of V vs control): -1.088
log2 Fold Change (gene HP0973, exposed to lethal concentrations vs control): 0.095
log2 Fold Change (gene HP0974, exposed to lethal concentrations vs control): 0.052
log2 Fold Change (gene HP0977, exposed to lethal concentration of V vs control): -0.962
log2 Fold Change (gene HP0978, exposed to lethal concentrations vs control): 0.116
log2 Fold Change (gene HP0979, exposed to lethal concentrations of V vs control): 0.480
